ChEMBL document CHEMBL4699439, “Design and development of novel N-(pyrimidin-2-yl)-1,3,4-oxadiazole hybrids to treat cognitive dysfunctions” (Bioorg Med Chem, 2019)

Assay: Effective permeability of compound in PBS buffer at pH 7.4 at 25 ug/ml incubated for 20 hrs by PAMPA-BBB assay

SMILES: COc1cc2c(cc1OC)C(=O)C(CC1CCN(Cc3ccccc3)CC1)C2 (stereo unspecified) [DONEPEZIL]
- Papp at 20 h, 25 ug/ml: 68.9 nm/s
